Measurements as given in PubChem BioAssay AID624415 (National Center for Advancing Translational Sciences (NCATS), 2012).
Hit rate of the full screen: of about 390,000 compounds, about 60 (0.02%) were called active. This list was built around the results that the source calls inconclusive (neither active nor inactive); the mix of calls is not that of the screen. Rule as the data show it: active = activity change below about -50%; inconclusive = between about -30% and that limit; inactive = weaker than that.

The chains behind the UniProt entries cited, without tags or fusion partners.
UniProt Q9GZU1, whole entry, looked up: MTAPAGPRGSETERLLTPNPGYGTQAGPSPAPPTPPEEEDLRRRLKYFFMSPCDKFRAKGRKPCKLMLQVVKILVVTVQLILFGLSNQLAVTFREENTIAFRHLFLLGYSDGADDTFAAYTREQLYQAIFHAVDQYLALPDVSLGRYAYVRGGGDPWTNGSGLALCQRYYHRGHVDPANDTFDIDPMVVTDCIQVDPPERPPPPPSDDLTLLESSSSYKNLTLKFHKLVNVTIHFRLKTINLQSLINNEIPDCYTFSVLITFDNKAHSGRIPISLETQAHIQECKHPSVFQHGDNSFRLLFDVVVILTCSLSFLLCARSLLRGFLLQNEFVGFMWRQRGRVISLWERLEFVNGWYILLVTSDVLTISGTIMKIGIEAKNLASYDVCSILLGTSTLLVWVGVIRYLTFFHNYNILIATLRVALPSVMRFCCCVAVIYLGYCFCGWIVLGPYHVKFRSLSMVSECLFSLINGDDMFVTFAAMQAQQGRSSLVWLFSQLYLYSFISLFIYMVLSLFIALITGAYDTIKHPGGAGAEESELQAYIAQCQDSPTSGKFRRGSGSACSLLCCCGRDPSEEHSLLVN

Target: Mucolipin-1 (Homo sapiens) (UniProt Q9GZU1)
Assay: qHTS for Inhibitors of the Human Mucolipin Transient Receptor Potential 1 (TRPML1);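 also: stimulus is agonist 54-4 at its EC80 concentration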
Conditions: TRPML1-inducible cells, Ca2+ dye fluorescence, FDSS; active compounds read low; inhibition of EC80 agonist-evoked calcium signal
Procedure, shortened: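 TRPML1-DL cells, Tet-induced overnight (~16 h, 37 °C) at 1,500 cells/well, were loaded with Ca8 no-wash dye plus quencher for 45-90 min at room temperature. Compounds were pinned during FDSS kinetic reading; agonist 54-4 at EC80 (4 uM final) then added.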
% is scaled to controls: 0 for no effect and ±100 for the full control effect.

| Compound | activity change, negative = inhibition |
| --- | --- |
| COc1ccc(S(=O)(=O)CCC(=O)N2CC(=O)N(CCc3ccccc3)C(=O)C2)cc1 | inconclusive: -36% |
| CCCc1nn2c(=O)cc(COC(=O)c3ccc(NC(=O)COc4ccccc4F)cc3)nc2s1 | inconclusive: -31.6% |
| Cn1cc(Br)c(NC(=O)/C=C/C(=O)O)n1 | inconclusive: -31.6% |
| CCOC(=O)c1ccc(N2N=C(C)/C(=C/C=C/c3ccco3)C2=O)cc1 | inactive: 3.14% |
| COC(=O)C1=CN(c2ccc(F)cc2)C=C(C(=O)OC)C1c1ccc([N+](=O)[O-])cc1 | inactive: 31% |
| COc1ccc(-c2cc(C(=O)Nc3cc(C)nn3-c3ccccc3)no2)cc1OC | inactive: 1.42% |
| CCOC(=O)c1ccc(NC(=S)N(CCCN2CCCC(C)C2)Cc2cccs2)cc1 (stereo not given) | inactive: -13.5% |
| CCCCCCN=C1CC(C)(C)CC(=O)/C1=C(/O)CCC | inconclusive: -32.7% |
| CCC(=O)N1CCCC(C)(C(=O)Nc2nccc3ccccc23)C1 (stereo not given) | inconclusive: -40.1% |
| COc1cccc(Cn2c(-c3cccs3)noc2=O)c1 | inconclusive: -39.3% |
| Cc1ccc(S(=O)(=O)N2[C@@H](c3ccc(F)cc3)C(C(=O)O)=CC[C@H]2c2cccc(Cl)c2)cc1 | inconclusive: -32.7% |
| S=C(NCc1ccccc1)N1CCn2cccc2C1c1ccncc1 (stereo not given) | inconclusive: -34.4% |
| COc1ccc(-n2c(=O)c3ccccc3n(CC(=O)NC3CCCC3)c2=O)cc1 | inconclusive: -31.1% |
| Cc1cc(N2CCN(C)CC2)nc2ccc(NC(=O)c3ccccc3F)cc12 | inconclusive: -36.4% |
| O=S(=O)(c1ccc(F)c(F)c1)N1CCN(CCc2ccccc2)CC1 | inconclusive: -30.2% |
| O=C1CN(C(=O)COC(=O)CCS(=O)(=O)c2ccccc2Cl)c2ccccc2N1 | inconclusive: -31.9% |
| Cc1ccc2oc(-c3ccc(NC(=O)c4cccnc4)cc3)nc2c1 | inconclusive: -38.6% |
| N#Cc1ccc(NC(=O)Nc2cccc(C#N)c2)cc1 | inactive: 4.43% |
| CCOc1ccc(NC(=O)C(NC(=O)C2CCC(C)CC2)C(C)C)cc1 (stereo not given) | inconclusive: -30.4% |
| COc1cccc(C(=O)c2sc3nc(-c4ccccc4)cc(C(F)(F)F)c3c2N)c1 | inconclusive: -31.4% |
| Cc1ccc(NC(=O)c2sccc2-n2cccc2)c(Cl)c1 | inconclusive: -34% |
| O=C(NC1CCCCC1)c1ccccc1NC(=S)NC(=O)C1CC1 | inconclusive: -33.3% |

| Compound | activity change, negative = inhibition |
| --- | --- |
| CCc1ccc(-n2nc(C)c3c(C)cc(=O)n(CC(=O)Nc4ccc(C)c(F)c4)c32)cc1 | inconclusive: -45.7% |
| Cc1cccc(NC(=O)CSc2n[nH]c(-c3cccnc3)n2)c1 | inconclusive: -35.5% |
| COCCCNCCCOc1ccc(Cl)cc1Br | inconclusive: -32.7% |
| CCCOC(=O)c1ccc(NC(=O)Cc2csc(C)n2)cc1 | inactive: -6.56% |
| CCS(=O)(=O)N1CCC(C(=O)NCc2cccc(OC)c2)CC1 | inconclusive: -41.5% |
| Nn1c(SCC(=O)Nc2nc3ccccc3s2)nncc1=O | inconclusive: -30.3% |
| CN(CCC#N)c1ccc(/C=C(\C#N)c2ccccn2)cc1 | inactive: -22.4% |
| Cc1ccc(S(=O)(=O)c2cn(Cc3ccccc3)c3cc(N4CCCC4)c(F)cc3c2=O)cc1C | inactive: -0.567% |
| CSc1nnc(-c2cccc(NC(=S)NN)c2)o1 | inconclusive: -34.8% |
| Cc1nc(C)c(-c2ccc(SCC(=O)Nc3ccccc3F)nn2)s1 | inconclusive: -38% |
| CCOC(=O)COc1coc(CN2CCN(c3ccc(F)cc3)CC2)cc1=O | inconclusive: -33.7% |
| O=C(NCc1ccc(F)cc1)C1CCN(S(=O)(=O)c2ccc(Cl)cc2)CC1 | inconclusive: -31.1% |
| O=C(Oc1ccccc1)N1CCOCC1 | inconclusive: -31.7% |
| CCC(Sc1nc2cc(OC)c(OC)cc2c(=O)n1CCc1ccc(Cl)cc1)C(=O)NCCOC (stereo not given) | inconclusive: -32.3% |
| CCOC(=O)N1CCC(Nc2cccc(SC)c2)CC1 | inactive: 8.02% |
| CC(C)NS(=O)(=O)c1ccc2nc(NC(=O)c3cncc(Br)c3)sc2c1 | inactive: -17.4% |
| Cc1cc(C)c2c(NC(=O)c3ccccc3Cl)c(C(=O)Nc3ccc(C)c(C)c3)sc2n1 | inconclusive: -30.2% |
| O=C(NCc1cccs1)C1CCN(S(=O)(=O)c2ccccc2F)CC1 | inactive: -4.3% |
| O=C(CC(=O)N/N=C/c1ccc(Cl)cc1Cl)NCc1ccccc1 | inconclusive: -30.9% |
| COc1ccc(CCNC(=O)c2cc(-c3ccc(C)cc3)nc3n[nH]c(-c4ccc(F)cc4)c23)cc1OC | inconclusive: -40% |
| CC(=O)Nc1ccc(OCC(O)CN2CCN(c3cccc(Cl)c3)CC2)cc1 (stereo not given) | inactive: 6.65% |
| O=C1[C@@H]2C(c3cccnc3)=NO[C@@H]2C(=O)N1c1ccc(Br)cc1 | inconclusive: -30.1% |

| Compound | activity change, negative = inhibition |
| --- | --- |
| CCOC(=O)N1CCN(CC(O)c2ccc3c(c2)CCN3)CC1 (stereo not given) | inconclusive: -32.6% |
| CCOc1ccccc1NC(=O)C1CCCN(C(=O)Nc2ccccc2)C1 (stereo not given) | inconclusive: -42.3% |
| O=C(Nc1ccc2c(c1)OCCO2)c1ccccn1 | inactive: 14.3% |
| NC(=O)C1CCN(C(=O)c2ccccc2NC(=O)c2nsc3ccccc23)CC1 | inconclusive: -43% |
| CCC(Sc1nc(C)cc(=O)[nH]1)C(=O)Nc1nnc(C)s1 (stereo not given) | inconclusive: -32.5% |
| COc1ccc(/C=C(\NC(=O)c2ccccc2)C(=O)NC2CCCCC2)cc1 | inactive: 28.8% |
| COc1ccc(N2CCN(CC(O)COc3ccc(C)c(C)c3)CC2)cc1 (stereo not given) | inconclusive: -40% |
| Cc1[nH]n(-c2ccccc2)c(=O)c1/C=N/NC(=O)c1cccc(F)c1 | inactive: 12.8% |
| C/C(CCc1oc2ccc(Br)cc2c1-c1ccc(C)o1)=N/O | inactive: 20.8% |
| O=C(C1COc2cc(S(=O)(=O)Nc3ccc(Cl)cc3)ccc2O1)N1CCCC1 (stereo not given) | inconclusive: -37% |
| Cn1c(=O)[nH]c(=O)c2c1nc1n2CCCN1CCc1ccccc1 | inconclusive: -33.6% |
| CCOC(=O)Cn1c(=O)c(C#N)cn(C(C)C)c1=O | inconclusive: -39.7% |
| COC(=O)c1cccc(CN2C(=O)SC(Nc3ccccc3)C2=O)c1 (stereo not given) | inconclusive: -41.1% |
| O=C(COC(=O)CCC(=O)c1ccccc1)NNC(=O)c1ccc(Cl)cc1 | inactive: -16.4% |
| CC(C)[C@@H](N)C(=O)NC[C@H]1O[C@@H](n2cnc3c(=O)[nH]c(N)nc32)[C@H](O)[C@@H]1O | inconclusive: -38.9% |
| O=C(OCc1ccccc1)c1cc(S(=O)(=O)N2CCCCC2)ccc1N1CCOCC1 | inconclusive: -32.6% |
| Cc1ccccc1CC(=O)NC1CCCCCC1 | active: -54.4% |
| COC(=O)c1ccccc1NC(=O)c1nc2nc(C)cc(C)n2n1 | inconclusive: -33% |
| O=C(Nc1ccc(F)c(Cl)c1)N1CCN(C(=O)c2nsc3ccccc23)CC1 | inactive: 13.9% |
| CN(C(=O)CS(=O)(=O)c1cn(CC(=O)N2CCOCC2)c2ccccc12)c1ccccc1 | inconclusive: -31.6% |
| COc1ccc(Cl)cc1NC(=O)N1CCC(CN2CCc3ccccc3C2)CC1 | inactive: 12.3% |
| CCOC(=O)C1CCN(Cc2cn[nH]c2-c2ccccc2)CC1 | inactive: -0.63% |

| Compound | activity change, negative = inhibition |
| --- | --- |
| CCc1nc2ccc(C(=O)NC3CCN(Cc4ccccc4)CC3)cn2c1N(C)CCN1CCOCC1 | inconclusive: -39.9% |
| COc1ccc(-c2nnc(SCC(=O)Nc3cccc(F)c3)s2)cc1 | inconclusive: -32.1% |
| CN(C)C(=O)CCc1ccc2c3c([nH]c2c1)[C@]1(CCC2CCCC2)[C@@H](C(=O)N2CCOCC2)C[C@H](CC(=O)NCCc2ccccn2)C(=O)N1CC3 | inconclusive: -30.9% |
| CSc1ncc(CN2CCN(C3CCCC3)C(CCO)C2)cn1 (stereo not given) | inconclusive: -44.2% |
| COc1ccccc1-n1cc(-c2ccc(C)cc2)nc1S(=O)(=O)CC(=O)Nc1ccccc1C(F)(F)F | inconclusive: -34% |
| CCc1c(C#N)c(SCCC(=O)Nc2ccc(OC)cc2)nc2c1C(=O)CC(C)(C)C2 | inactive: -4.85% |
| CC(C)(C)NC(=O)c1cccc(NC(=O)c2ccc3c(c2)C(=O)N(C(C)(C)C)C3=O)c1 | inactive: 10.4% |
| C=CCC[C@@H](Cc1ccc(F)cc1)C(=O)OC[C@H](Cc1c[nH]c2ccccc12)NC(=O)[C@H](CC=C)CC(=O)NCCO | inconclusive: -33.2% |
| COc1ccc2oc(=O)c(/C(C)=N/NC(=O)c3ccncc3)cc2c1 | inconclusive: -30.9% |
| COCC1CCCN(C(=O)c2ccc(OC3CCN(Cc4ccccn4)CC3)cc2)C1 (stereo not given) | inconclusive: -33.8% |
| Cc1nnc(Sc2cc(C(=O)NCCCN(C)Cc3ccccc3)c3ccccc3n2)s1 | inconclusive: -44.1% |
| Cc1cc(C)n2c(SCc3c(C)noc3C)nnc2n1 | inconclusive: -33.3% |
| CCN(CC)c1nc2ccccc2[nH]c1=O | inconclusive: -32.1% |
| Cc1cc2c(s1)c1cnn(CC(=O)NCCc3ccccc3)c(=O)c1n2C | inconclusive: -31.4% |
| CCOC(=O)c1cc(-c2ccc(OC)cc2)n(CCC(=O)NCc2ccc(OC)cc2)c1C | inactive: -1.27% |
| COC(=O)[C@H](CCSC)NC(=O)Cn1ccc(N)nc1=O | inconclusive: -41.4% |
| CCOC(=O)c1c(NC(=O)C(C)Sc2cn(CCNC(=O)c3c(F)cccc3F)c3ccccc23)sc2c1CCC2 (stereo not given) | inactive: -21.3% |
| COc1ccc(/C=N/n2cncn2)cc1CSc1ccccn1 | inconclusive: -36.6% |
| CCc1ccc(OCC(=O)NC(Cc2c[nH]c3ccccc23)C(=O)O)cc1 (stereo not given) | inconclusive: -32.5% |

Part of the list above in order of molar mass, ascending.

| Compound | activity change, negative = inhibition |
| --- | --- |
| CCc1ccc(OCC(=O)NC(Cc2c[nH]c3ccccc23)C(=O)O)cc1 (stereo not given) | inconclusive: -32.5% |
| CCC(Sc1nc2cc(OC)c(OC)cc2c(=O)n1CCc1ccc(Cl)cc1)C(=O)NCCOC (stereo not given) | inconclusive: -32.3% |
| CN(C)C(=O)CCc1ccc2c3c([nH]c2c1)[C@]1(CCC2CCCC2)[C@@H](C(=O)N2CCOCC2)C[C@H](CC(=O)NCCc2ccccn2)C(=O)N1CC3 | inconclusive: -30.9% |
